Test system: ApoE-/- mice
Assay: Plasma cholesterol (Infinity Cholesterol, colorimetric) in immunized ApoE-/- mice on HFD
Type: in vivo
Conditions: for Plasma cholesterol levels: additional early atherosclerosis study with short tcOPN-PADRE peptide

Sequence | Plasma cholesterol levels (HFD 8 weeks) [mg/dL] | Cholesterol early atherosclerosis (plasma, HFD 8 weeks, mean ± SD) [mg/dL] | Cholesterol advanced atherosclerosis (plasma, HFD 15 weeks, mean ± SD, * significant difference) [mg/dL]
AKFVAAWTLKAAAGRGDSLAYGLR (PADRE-tcOPN short) [short tcOPN-PADRE peptide] | 772 ± 137 | – | –
AKFVAAWTLKAAA (PADRE) | 813 ± 109 | 772 ± 154 | 647 ± 143
